Earlier results in patent US20230381160A1, “PROPHYLATIC USE OF CALCIUM CHANNEL BLOCKERS IN TUBERCULOSIS” (priority 2020, published 2023).
For at least one compound, name, drawing or mass did not settle the structure.

Test system: intra-macrophage pathogens
Settings: cited from earlier work

In the case of COC(=O)C1=C(C)NC(C)=C(C(=O)OC)C1c1ccccc1[N+](=O)[O-] [Nifedipine, nifedipine], the “iron availability for intra-macrophage pathogens” value is given as “reduce iron availability”.
